Drawing on the odorant receptor screen of Mainland et al. (2015), this text covers odorant receptor activation for 14 compounds.

Test systems include OR8G5 clone 1493; OR8H1 clone 1388; OR8H3 P137S clone 1215; OR8I2 clone 1213; OR8J1 Y120C clone 1500; OR8J3 clone 1149; OR8K1 clone 1431; OR8K3 L122R clone 1195; OR8K5 clone 1150.
Holding throughout (assay): odorant receptor activation (CRE luciferase / Renilla) (fold of no-odor wells); higher = more activation
Conditions in all cases: 100 µM

The test system of experiment [1] is OR8H2 A105V/I154M/V158L/Y169C/D170Y/Y259H/V284M clone 1214.

“And” between values parts separate entries of the source, which are not always exact repeats. Equal entries are not always repeated. Some of the results follow. Single wells; the ratio to wells without odorant was worked out here, and repeats agree poorly.

For the compound `COc1cc(C=O)ccc1O` [vanillin], the odorant receptor activation with OR8G5 clone 1493 was 0.894; in the experiment with OR8H1 clone 1388, 1.04; in experiment [1], 1.09; in the experiment on OR8H3 P137S clone 1215, 1.1; in the experiment on OR8I2 clone 1213 it was 1.19; in the experiment on OR8J1 Y120C clone 1500, 1.18. Besides, the odorant receptor activation in the experiment on OR8J3 clone 1149 turned out to be 1.54; with OR8K1 clone 1431 it was 1.02; with OR8K3 L122R clone 1195, 0.889; in the experiment with OR8K5 clone 1150, 1.33.
In the case of `CCCCCCCC=O` [octyl aldehyde], the odorant receptor activation with OR8G5 clone 1493 is 0.94; in the experiment on OR8H1 clone 1388, 0.934; in [1], 1.19; in the experiment on OR8H3 P137S clone 1215, 1.47; in the experiment on OR8I2 clone 1213, 1.24; with OR8J1 Y120C clone 1500 it was 0.951. The odorant receptor activation in the experiment on OR8J3 clone 1149 turned out to be 1.07; with OR8K1 clone 1431 it was 0.846; in the experiment on OR8K3 L122R clone 1195 it was 1.31; in the experiment with OR8K5 clone 1150 it was 0.929.
Take `CC1CCC(C(C)C)C(O)C1` (single isomer, unassigned; (+)) [(+)-menthol]: the odorant receptor activation in the experiment on OR8G5 clone 1493 came to 1.22; with OR8H1 clone 1388 it was 1.46; in [1], 0.763; with OR8H3 P137S clone 1215, 0.809; in the experiment on OR8I2 clone 1213, 1.41; in the experiment on OR8J1 Y120C clone 1500 it was 1.03. Also, the odorant receptor activation with OR8J3 clone 1149 was 1.26; in the experiment on OR8K1 clone 1431, 0.857; with OR8K3 L122R clone 1195 it was 1.91; in the experiment on OR8K5 clone 1150, 1.19.
Consider `CC(=O)C(C)=O` [diacetyl], for which the odorant receptor activation was 1.14 in the experiment with OR8G5 clone 1493; 1.21 with OR8H1 clone 1388; 1.17 in experiment [1]; 1.16 with OR8H3 P137S clone 1215; 1.12 in the experiment with OR8I2 clone 1213; 1.42 with OR8J1 Y120C clone 1500. For the same compound, the odorant receptor activation in the experiment with OR8J3 clone 1149 worked out at 0.979; with OR8K1 clone 1431, 1.38; with OR8K3 L122R clone 1195, 1.03; with OR8K5 clone 1150 it was 1.15.
Consider `CCC1(O)C2(C)CCC(C2)C1(C)C` (stereo not given) [2-ethylfenchol], for which the odorant receptor activation in the experiment with OR8G5 clone 1493 worked out at 1.25; in the experiment on OR8H1 clone 1388, 1.41; in [1] it was 0.873; in the experiment on OR8H3 P137S clone 1215, 0.592; in the experiment on OR8I2 clone 1213 it was 1.02; in the experiment on OR8J1 Y120C clone 1500, 0.911. Further, the odorant receptor activation came out at 1.12 with OR8J3 clone 1149, 0.961 with OR8K1 clone 1431, 0.791 in the experiment with OR8K3 L122R clone 1195 and 1.01 with OR8K5 clone 1150.
As for `CCCCCCCCCCC=O` [undecanal], the odorant receptor activation in the experiment on OR8G5 clone 1493 came to 0.779; in the experiment with OR8H1 clone 1388, 1.12; in experiment [1] it was 1.04; with OR8H3 P137S clone 1215 it was 1.01; in the experiment with OR8I2 clone 1213, 1.01; in the experiment with OR8J1 Y120C clone 1500, 1.21. The odorant receptor activation in the experiment with OR8J3 clone 1149 is 1.1; in the experiment with OR8K1 clone 1431 it was 1.21; with OR8K3 L122R clone 1195, 1.37; in the experiment on OR8K5 clone 1150, 1.14.
Turning to `C=CCSCC=C` [diallyl sulfide], the odorant receptor activation with OR8G5 clone 1493 is 1.1; in the experiment on OR8H1 clone 1388 it was 0.956; in experiment [1] it was 1.27; in the experiment on OR8H3 P137S clone 1215, 1.07; with OR8I2 clone 1213 it was 0.949; in the experiment with OR8J1 Y120C clone 1500 it was 1.45. Moreover, the odorant receptor activation in the experiment with OR8J3 clone 1149 was 0.968; in the experiment with OR8K1 clone 1431, 1.36; with OR8K3 L122R clone 1195 it was 1; in the experiment on OR8K5 clone 1150, 1.1.
On to `CCCCCCCCCC=O` [decyl aldehyde], for which the odorant receptor activation with OR8G5 clone 1493 stood at 1.01; with OR8H1 clone 1388, 1.3; in experiment [1], 1.29; in the experiment with OR8H3 P137S clone 1215, 1.11; with OR8I2 clone 1213, 1.09; in the experiment on OR8J1 Y120C clone 1500, 1.15. Further, the odorant receptor activation with OR8J3 clone 1149 was found to be 1.09; in the experiment on OR8K1 clone 1431, 1.41; in the experiment with OR8K3 L122R clone 1195 it was 1.11; with OR8K5 clone 1150, 1.16.
For the compound `C=CCc1ccc(OC)c(OC)c1` [eugenol methyl ether], the odorant receptor activation in the experiment with OR8G5 clone 1493 worked out at 1.11; with OR8H1 clone 1388 it was 1.45; in experiment [1], 1.77; in the experiment on OR8H3 P137S clone 1215 it was 1.49; in the experiment with OR8I2 clone 1213 it was 1.3; with OR8J1 Y120C clone 1500 it was 1.43. For the same compound, the odorant receptor activation came out at 1.52 in the experiment on OR8J3 clone 1149, 1.37 in the experiment with OR8K1 clone 1431, 1.46 with OR8K3 L122R clone 1195 and 1.38 in the experiment on OR8K5 clone 1150.
For `CC12C=CCC1C1CCC3=CC(=O)CCC3(C)C1CC2` (stereo not given) [androstadienone], the odorant receptor activation with OR8G5 clone 1493 was 1.42 and 1.39; with OR8H1 clone 1388, 0.818; in experiment [1], 1.18; in the experiment on OR8H3 P137S clone 1215 it was 0.75; with OR8I2 clone 1213, 1.19; in the experiment on OR8J1 Y120C clone 1500 it was 0.863 and 1.32. Besides, the odorant receptor activation came out at 0.981 with OR8J3 clone 1149, 0.981 with OR8K1 clone 1431, 0.916 with OR8K3 L122R clone 1195 and 1.09 in the experiment with OR8K5 clone 1150.
Take `CC=Cc1ccc(O)c(OC)c1` [isoeugenol]: the odorant receptor activation in the experiment on OR8G5 clone 1493 was 0.919 and 1.57; in the experiment with OR8H1 clone 1388, 1.3; in experiment [1], 1.2; with OR8H3 P137S clone 1215, 1.09; in the experiment on OR8I2 clone 1213, 1.89; in the experiment on OR8J1 Y120C clone 1500, 1.76 and 2.21. The odorant receptor activation turned out to be 0.866 in the experiment with OR8J3 clone 1149, 1.45 in the experiment on OR8K1 clone 1431, 1.05 with OR8K3 L122R clone 1195 and 1.32 in the experiment with OR8K5 clone 1150.
Regarding `C=C(C)C1CC=C(C)C(=O)C1` (stereo not given) [r-carvone], the odorant receptor activation worked out at 0.708 in the experiment on OR8G5 clone 1493; 1.27 in the experiment on OR8H1 clone 1388; 1.15 in experiment [1]; 1.14 in the experiment on OR8H3 P137S clone 1215; 1.27 in the experiment with OR8I2 clone 1213; 0.897 with OR8J1 Y120C clone 1500. Moreover, the odorant receptor activation was 1.11 in the experiment with OR8J3 clone 1149, 1.19 in the experiment with OR8K1 clone 1431, 1.22 in the experiment with OR8K3 L122R clone 1195 and 1.07 with OR8K5 clone 1150.
`CC12C=CCC1C1CCC3CC(=O)CCC3(C)C1CC2` (stereo not given) [androstenone]: the odorant receptor activation with OR8G5 clone 1493 stood at 1.09; in the experiment on OR8H1 clone 1388 it was 1.38; in experiment [1] it was 5.91; in the experiment with OR8H3 P137S clone 1215, 4.4; in the experiment on OR8I2 clone 1213, 5.03; in the experiment with OR8J1 Y120C clone 1500, 0.776. In addition, the odorant receptor activation came out at 10.1 in the experiment with OR8J3 clone 1149, 0.731 with OR8K1 clone 1431, 4.21 in the experiment on OR8K3 L122R clone 1195 and 4.49 with OR8K5 clone 1150.
Take `COc1cc(C)ccc1O` [2-methoxy-4-methylphenol]: the odorant receptor activation is 0.867 in the experiment with OR8G5 clone 1493; 1 in the experiment on OR8H1 clone 1388; 0.766 in experiment [1]; 0.727 in the experiment on OR8H3 P137S clone 1215; 1.19 in the experiment on OR8I2 clone 1213; 0.647 in the experiment on OR8J1 Y120C clone 1500. In addition, the odorant receptor activation in the experiment on OR8J3 clone 1149 was found to be 1.3; in the experiment with OR8K1 clone 1431, 1; in the experiment on OR8K3 L122R clone 1195 it was 1; in the experiment with OR8K5 clone 1150 it was 1.19.
